Measurements reported in US20190062427A1.
Positions count from the first letter of the chain named. These are yes or no findings as the source states them, for the method shown. Some results given as binding are weak or reduced against the parent protein; the word gives no strength. Blank lines part the entries; values can stand above or below the binder they belong to.

Amino acid sequences for entries named in this document (tags omitted). A change or cut given only in a name is not applied to a line headed by its entry.
UniProt Q9Y336: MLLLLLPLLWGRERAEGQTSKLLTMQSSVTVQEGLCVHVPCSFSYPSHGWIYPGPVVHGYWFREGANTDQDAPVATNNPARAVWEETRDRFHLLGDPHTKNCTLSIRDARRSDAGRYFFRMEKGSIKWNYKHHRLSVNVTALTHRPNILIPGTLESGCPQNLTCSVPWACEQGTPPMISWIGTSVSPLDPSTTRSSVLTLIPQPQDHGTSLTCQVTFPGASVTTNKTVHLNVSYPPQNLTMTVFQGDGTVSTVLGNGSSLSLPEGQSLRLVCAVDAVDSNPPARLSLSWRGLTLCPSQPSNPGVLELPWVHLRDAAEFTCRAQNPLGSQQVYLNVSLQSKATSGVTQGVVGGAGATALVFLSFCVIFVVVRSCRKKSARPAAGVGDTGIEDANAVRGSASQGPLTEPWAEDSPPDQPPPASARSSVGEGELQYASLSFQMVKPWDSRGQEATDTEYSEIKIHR

Key:
[1] = molecular target: human Siglec-9 expressed on human cells (human) (UniProt Q9Y336); assay: flow cytometry on human primary cells expressing Siglec-9
[2] = molecular target: human Siglec-9 expressed on human cells (human) (UniProt Q9Y336); assay: flow cytometry on human primary dendritic cells, mAb plus labelled secondary antibody
[3] = molecular target: Histidine-tagged human Siglec-9 (NovoProtein) (human) (UniProt Q9Y336); assay: SPR (Biacore T200), mAb captured on anti-mouse IgG CM5 chip, 100 nM His-tagged Siglec-9 injected
[4] = molecular target: Histidine-tagged human Siglec-9 (NovoProtein) (human) (UniProt Q9Y336); assay: SPR (Biacore T200), mAb captured on anti-mouse IgG CM5 chip, 200 nM His-tagged Siglec-9 injected [Contd.]

binding [1]: binds | binding [2]: binds | binding [3]: binds
B1: anti-Siglec-9 antibody 5B1 (antibody, IgG1, V domains shown)
VH: QVQLQQSGAEVVKPGASVKLSCKAFGYTFTSYWMHWVKQRPGQGLEWIGEINPRDGVSNCNEKFTSKATLTVDTSSNTAYMQLNNLTSEDSAVYYCTIWEDYFDYWGQGTTLTVST
VL: NVVMTQTPLTLSVTLGQPASISCKSSQSLLYTNGKTYLNWLLQRPGQSPKLLIYLVSKLESGVPDRFSGSGSGTDFTLKINRVEAEDLGVYYCLQATHFPLTFGAGTKLELK

binding [1]: binds | binding [2]: binds | binding [4]: binds
B2: anti-Siglec-9 antibody 7H12 (antibody, V domains shown)
VH: B1 VH
VL: B1 VL with V3Z, Y92F, T97P, A105G, L111M
